# Reference: patent US20030032651A1 (priority 2001, published 2003)
# At least one structure is not confirmed: it was looked up by name or label, or the drawing left a doubt.
# Columns and labels:
# [1] = Rat hindpaw withdrawal latency (HWL) to thermal stimulation (hot-plate test, 52° C.); format: in vivo; conditions: day 1, drug alone (morphine 8 μg or nociceptin 10 nmol i.t.), both hindpaws similar
# [2] = Development of tolerance to intrathecal analgesia in rat HWL study (thermal and mechanical); format: in vivo
# [3] = intrathecal administration; cited from earlier work
structure (smiles),measurement,setting,value
"CC(C)C[C@H](NC(=O)[C@H](CCCCN)NC(=O)[C@H](CCCN=C(N)N)NC(=O)[C@H](C)NC(=O)[C@H](CO)NC(=O)[C@H](CCCCN)NC(=O)[C@H](CCCN=C(N)N)NC(=O)[C@H](C)NC(=O)CNC(=O)[C@@H](NC(=O)[C@H](Cc1ccccc1)NC(=O)CNC(=O)CNC(=O)[C@@H](N)Cc1ccccc1)[C@@H](C)O)C(=O)N[C@@H](C)C(=O)N[C@@H](CC(N)=O)C(=O)N[C@@H](CCC(N)=O)C(=O)O [Nociceptin, nociceptin]",HWL increase using thermal stimulation,[1],approximately 90%
same,day by which total/complete tolerance exists,"[2]; drug alone i.t. every 12 hrs, mechanical and thermal HWL",≤ 4 days
same,tolerance developed,"[2]; nociceptin alone group, by day 2",50%
same,duration of the antinociceptive response evoked by intrathecal δ-opioid receptor agonist deltorphin,[3],increase the duration
